Publication PMC7378894
These are yes or no findings as the source states them, for the method shown. Binding seen in cells or lysates may run through a third protein. Here binding means that the protein was enriched with, or labelled near, the bait; the list need not be complete.

The chains behind the UniProt entries cited, without tags or fusion partners.
UniProt O75626: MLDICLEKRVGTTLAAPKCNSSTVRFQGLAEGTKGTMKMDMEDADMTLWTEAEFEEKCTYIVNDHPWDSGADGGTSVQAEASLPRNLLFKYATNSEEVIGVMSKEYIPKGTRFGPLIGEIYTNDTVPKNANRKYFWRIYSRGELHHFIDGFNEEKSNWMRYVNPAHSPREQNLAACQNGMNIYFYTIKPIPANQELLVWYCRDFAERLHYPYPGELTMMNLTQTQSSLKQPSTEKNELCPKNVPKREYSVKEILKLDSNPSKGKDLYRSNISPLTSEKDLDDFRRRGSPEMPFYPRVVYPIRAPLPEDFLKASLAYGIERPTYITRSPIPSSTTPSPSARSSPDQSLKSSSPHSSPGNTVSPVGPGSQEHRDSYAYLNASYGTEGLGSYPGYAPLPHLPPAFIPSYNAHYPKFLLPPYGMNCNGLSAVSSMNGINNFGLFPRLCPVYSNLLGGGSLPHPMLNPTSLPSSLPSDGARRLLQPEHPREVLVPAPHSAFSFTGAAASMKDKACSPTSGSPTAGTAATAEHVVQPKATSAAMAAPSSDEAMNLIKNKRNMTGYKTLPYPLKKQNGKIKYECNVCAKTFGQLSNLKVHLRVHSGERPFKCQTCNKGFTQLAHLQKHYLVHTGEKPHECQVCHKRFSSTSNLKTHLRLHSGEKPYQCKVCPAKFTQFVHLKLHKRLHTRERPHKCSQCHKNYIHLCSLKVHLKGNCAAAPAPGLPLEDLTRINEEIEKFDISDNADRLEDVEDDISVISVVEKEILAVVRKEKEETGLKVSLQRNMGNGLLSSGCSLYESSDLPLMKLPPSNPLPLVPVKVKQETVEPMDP

Target: Positive regulatory domain 1 (PRDM1) in monocyte derived-dendritic cells (human (endogenous in MO-DCs)) (UniProt O75626)
Assay: affinity purification with mass spectrometry; iTRAQ MS of the nuclear fraction of MO-DCs immunoprecipitated by PRDM1 antibody, compared with control IgG, cutoff >1.5-fold

B1: non-POU domain-containing octamer-binding protein (NonO) in monocyte derived-dendritic cells (protein, UniProt Q15233 1-471)
chain: MQSNKTFNLEKQNHTPRKHHQHHHQQQHHQQQQQQPPPPPIPANGQQASSQNEGLTIDLKNFRKPGEKTFTQRSRLFVGNLPPDITEEEMRKLFEKYGKAGEVFIHKDKGFGFIRLETRTLAEIAKVELDNMPLRGKQLRVRFACHSASLTVRNLPQYVSNELLEEAFSVFGQVERAVVIVDDRGRPSGKGIVEFSGKPAARKALDRCSEGSFLLTTFPRPVTVEPMDQLDDEEGLPEKLVIKNQQFHKEREQPPRFAQPGSFEYEYAMRWKALIEMEKQQQDQVDRNIKEAREKLEMEMEAARHEHQVMLMRQDLMRRQEELRRMEELHNQEVQKRKQLELRQEEERRRREEEMRRQQEEMMRRQQEGFKGTFPDAREQEIRMGQMAMGGAMGINNRGAMPPAPVPAGTPAPPGPATMMPDGTLGLTPPTTERFGQAATMEGIGAIGGTPPAFNRAAPGAEFAPNKRRRY
B1 was tested, and the binding was “binds”.
